Laboratory results reported in the supplement of paper PMC10849652.
The other results are listed elsewhere or left out.

Protein sequences, listed by entry. Tags and fused reporters are not part of them. Lines headed by an entry give the natural chain unless they say otherwise; changes in a name come on top.
UniProt P49427: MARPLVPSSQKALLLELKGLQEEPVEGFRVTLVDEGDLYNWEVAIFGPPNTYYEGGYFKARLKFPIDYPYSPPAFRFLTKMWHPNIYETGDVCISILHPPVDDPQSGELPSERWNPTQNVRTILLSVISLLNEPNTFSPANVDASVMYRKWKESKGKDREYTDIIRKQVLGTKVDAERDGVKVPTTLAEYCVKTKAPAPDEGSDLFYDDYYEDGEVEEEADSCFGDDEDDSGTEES
UniProt Q8WUX2: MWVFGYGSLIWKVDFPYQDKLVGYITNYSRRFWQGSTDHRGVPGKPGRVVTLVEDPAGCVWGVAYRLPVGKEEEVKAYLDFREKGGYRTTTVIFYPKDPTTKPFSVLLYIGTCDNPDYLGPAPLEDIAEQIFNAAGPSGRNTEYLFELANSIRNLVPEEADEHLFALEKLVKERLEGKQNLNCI
UniProt Q9Y6A4: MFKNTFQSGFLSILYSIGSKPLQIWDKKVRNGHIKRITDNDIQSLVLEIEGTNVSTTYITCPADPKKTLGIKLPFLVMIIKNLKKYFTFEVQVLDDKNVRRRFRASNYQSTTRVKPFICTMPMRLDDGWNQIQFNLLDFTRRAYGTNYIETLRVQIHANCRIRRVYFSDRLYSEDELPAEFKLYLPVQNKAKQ
UniProt Q9UEE9, whole entry, looked up: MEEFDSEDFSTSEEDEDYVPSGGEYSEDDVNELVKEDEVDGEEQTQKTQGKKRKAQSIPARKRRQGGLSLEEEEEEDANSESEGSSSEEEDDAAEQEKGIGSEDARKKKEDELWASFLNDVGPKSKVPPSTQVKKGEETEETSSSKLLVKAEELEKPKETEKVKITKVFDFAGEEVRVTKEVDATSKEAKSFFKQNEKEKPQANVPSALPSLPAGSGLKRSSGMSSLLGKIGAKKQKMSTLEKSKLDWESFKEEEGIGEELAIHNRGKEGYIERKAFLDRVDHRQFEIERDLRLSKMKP
UniProt Q9UPN4: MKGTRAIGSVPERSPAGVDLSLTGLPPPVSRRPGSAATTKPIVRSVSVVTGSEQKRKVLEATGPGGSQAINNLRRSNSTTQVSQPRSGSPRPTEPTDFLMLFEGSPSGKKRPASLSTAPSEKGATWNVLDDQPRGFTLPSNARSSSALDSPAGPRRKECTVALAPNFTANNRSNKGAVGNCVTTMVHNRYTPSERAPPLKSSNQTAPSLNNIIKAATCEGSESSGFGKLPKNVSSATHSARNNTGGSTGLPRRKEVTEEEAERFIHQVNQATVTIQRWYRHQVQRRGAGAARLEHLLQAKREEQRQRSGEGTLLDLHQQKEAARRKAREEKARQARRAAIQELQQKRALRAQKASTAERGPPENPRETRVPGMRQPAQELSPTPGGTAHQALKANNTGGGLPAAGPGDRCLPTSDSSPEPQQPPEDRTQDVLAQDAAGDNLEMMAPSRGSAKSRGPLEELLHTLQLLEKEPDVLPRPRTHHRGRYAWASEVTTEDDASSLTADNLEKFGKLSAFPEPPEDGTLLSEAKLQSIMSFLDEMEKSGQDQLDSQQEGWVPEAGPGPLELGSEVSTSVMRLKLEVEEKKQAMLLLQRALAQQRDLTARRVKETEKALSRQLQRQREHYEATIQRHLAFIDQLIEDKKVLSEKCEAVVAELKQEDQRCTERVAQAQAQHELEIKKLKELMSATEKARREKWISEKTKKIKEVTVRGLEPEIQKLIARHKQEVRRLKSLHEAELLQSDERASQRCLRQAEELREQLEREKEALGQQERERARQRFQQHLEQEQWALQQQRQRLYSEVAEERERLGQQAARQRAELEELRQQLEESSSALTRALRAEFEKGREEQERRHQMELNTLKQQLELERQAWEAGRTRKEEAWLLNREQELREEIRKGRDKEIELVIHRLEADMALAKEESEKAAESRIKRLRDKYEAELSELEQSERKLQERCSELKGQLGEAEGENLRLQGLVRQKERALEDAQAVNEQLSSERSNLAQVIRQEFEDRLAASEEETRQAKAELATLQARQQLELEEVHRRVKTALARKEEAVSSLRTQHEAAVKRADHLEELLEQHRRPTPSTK
UniProt P60953, whole entry, looked up: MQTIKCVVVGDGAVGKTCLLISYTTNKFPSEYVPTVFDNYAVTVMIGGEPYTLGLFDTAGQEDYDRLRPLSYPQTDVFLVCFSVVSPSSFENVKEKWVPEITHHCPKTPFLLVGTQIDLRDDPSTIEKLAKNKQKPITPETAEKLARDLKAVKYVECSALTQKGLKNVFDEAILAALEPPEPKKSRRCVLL
UniProt P30260, whole entry, looked up: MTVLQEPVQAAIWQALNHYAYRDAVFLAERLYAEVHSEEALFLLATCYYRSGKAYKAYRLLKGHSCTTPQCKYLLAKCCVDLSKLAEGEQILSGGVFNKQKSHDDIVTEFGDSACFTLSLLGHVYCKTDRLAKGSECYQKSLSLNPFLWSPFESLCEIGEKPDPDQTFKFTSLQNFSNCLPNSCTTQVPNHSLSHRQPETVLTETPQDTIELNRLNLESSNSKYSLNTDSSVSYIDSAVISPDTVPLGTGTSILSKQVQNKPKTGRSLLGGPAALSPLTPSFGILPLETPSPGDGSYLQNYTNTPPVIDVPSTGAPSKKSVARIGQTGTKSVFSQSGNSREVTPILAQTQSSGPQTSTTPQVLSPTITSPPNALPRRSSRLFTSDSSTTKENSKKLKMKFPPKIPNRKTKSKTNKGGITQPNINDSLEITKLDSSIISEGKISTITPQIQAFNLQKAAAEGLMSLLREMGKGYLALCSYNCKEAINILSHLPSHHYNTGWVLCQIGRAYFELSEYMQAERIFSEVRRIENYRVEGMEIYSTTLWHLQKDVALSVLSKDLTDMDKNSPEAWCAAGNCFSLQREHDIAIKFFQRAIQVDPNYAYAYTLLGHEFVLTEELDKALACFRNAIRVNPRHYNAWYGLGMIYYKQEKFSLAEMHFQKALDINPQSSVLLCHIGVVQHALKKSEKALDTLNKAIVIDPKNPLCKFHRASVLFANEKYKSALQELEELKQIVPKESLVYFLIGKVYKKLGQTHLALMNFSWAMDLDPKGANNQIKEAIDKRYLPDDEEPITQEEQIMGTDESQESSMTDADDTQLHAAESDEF
UniProt P17676: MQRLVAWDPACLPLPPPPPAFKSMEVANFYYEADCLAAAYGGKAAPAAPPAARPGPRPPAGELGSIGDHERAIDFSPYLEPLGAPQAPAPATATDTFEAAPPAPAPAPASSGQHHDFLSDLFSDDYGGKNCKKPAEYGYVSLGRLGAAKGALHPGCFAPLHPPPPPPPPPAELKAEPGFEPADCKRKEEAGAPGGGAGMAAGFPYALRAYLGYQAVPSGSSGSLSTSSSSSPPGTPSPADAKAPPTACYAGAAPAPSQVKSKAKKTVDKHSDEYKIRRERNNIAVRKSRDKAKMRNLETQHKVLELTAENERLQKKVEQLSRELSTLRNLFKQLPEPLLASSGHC
UniProt Q8IW35: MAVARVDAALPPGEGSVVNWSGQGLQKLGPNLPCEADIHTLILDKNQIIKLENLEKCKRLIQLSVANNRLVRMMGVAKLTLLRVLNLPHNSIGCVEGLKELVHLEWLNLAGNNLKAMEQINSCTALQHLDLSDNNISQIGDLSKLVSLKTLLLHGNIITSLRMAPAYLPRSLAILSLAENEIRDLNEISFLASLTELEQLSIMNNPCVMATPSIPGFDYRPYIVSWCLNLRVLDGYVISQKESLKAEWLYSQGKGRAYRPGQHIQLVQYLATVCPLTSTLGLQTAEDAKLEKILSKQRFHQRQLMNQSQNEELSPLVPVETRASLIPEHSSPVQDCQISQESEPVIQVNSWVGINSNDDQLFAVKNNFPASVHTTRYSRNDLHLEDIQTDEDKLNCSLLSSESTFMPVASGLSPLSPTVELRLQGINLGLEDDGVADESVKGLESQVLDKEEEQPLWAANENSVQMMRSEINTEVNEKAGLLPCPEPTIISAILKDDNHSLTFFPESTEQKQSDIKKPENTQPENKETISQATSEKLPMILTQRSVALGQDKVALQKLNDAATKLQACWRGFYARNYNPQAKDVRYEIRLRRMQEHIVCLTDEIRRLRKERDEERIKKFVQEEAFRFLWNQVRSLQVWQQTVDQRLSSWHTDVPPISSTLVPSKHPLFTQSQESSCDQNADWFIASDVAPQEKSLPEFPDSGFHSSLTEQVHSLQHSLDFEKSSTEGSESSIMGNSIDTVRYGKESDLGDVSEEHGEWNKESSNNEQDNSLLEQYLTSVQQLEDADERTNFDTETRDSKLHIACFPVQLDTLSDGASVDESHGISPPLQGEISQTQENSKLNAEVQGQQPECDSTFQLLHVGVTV
UniProt Q9BUX1: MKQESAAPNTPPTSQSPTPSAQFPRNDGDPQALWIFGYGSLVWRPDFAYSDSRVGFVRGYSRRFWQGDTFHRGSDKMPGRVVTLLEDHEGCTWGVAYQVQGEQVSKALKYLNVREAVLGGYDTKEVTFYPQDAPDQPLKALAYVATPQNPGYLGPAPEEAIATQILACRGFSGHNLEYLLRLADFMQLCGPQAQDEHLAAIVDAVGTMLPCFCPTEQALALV
UniProt Q9BS16: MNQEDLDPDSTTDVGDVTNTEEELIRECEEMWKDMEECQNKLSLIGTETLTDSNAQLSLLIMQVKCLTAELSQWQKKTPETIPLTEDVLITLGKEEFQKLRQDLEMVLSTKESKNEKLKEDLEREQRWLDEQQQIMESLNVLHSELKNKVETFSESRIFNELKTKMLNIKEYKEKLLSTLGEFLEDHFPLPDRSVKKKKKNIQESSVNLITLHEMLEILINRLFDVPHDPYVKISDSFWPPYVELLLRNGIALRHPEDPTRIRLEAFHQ
UniProt P50750, whole entry, looked up: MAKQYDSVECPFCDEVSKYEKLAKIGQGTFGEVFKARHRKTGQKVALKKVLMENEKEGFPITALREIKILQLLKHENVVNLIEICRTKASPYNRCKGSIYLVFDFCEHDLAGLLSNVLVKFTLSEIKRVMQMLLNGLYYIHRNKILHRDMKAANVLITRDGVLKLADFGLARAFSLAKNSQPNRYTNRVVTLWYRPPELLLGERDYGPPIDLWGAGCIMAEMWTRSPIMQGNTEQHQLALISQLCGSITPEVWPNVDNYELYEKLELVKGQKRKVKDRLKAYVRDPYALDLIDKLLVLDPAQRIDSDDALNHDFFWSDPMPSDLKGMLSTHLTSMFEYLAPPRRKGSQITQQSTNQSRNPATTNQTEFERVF
UniProt Q9UFW8: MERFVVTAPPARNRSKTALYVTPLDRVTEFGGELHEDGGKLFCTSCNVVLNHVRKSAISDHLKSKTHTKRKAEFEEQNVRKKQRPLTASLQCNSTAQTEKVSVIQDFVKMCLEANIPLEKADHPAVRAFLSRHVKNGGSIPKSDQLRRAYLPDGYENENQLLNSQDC
UniProt Q99459: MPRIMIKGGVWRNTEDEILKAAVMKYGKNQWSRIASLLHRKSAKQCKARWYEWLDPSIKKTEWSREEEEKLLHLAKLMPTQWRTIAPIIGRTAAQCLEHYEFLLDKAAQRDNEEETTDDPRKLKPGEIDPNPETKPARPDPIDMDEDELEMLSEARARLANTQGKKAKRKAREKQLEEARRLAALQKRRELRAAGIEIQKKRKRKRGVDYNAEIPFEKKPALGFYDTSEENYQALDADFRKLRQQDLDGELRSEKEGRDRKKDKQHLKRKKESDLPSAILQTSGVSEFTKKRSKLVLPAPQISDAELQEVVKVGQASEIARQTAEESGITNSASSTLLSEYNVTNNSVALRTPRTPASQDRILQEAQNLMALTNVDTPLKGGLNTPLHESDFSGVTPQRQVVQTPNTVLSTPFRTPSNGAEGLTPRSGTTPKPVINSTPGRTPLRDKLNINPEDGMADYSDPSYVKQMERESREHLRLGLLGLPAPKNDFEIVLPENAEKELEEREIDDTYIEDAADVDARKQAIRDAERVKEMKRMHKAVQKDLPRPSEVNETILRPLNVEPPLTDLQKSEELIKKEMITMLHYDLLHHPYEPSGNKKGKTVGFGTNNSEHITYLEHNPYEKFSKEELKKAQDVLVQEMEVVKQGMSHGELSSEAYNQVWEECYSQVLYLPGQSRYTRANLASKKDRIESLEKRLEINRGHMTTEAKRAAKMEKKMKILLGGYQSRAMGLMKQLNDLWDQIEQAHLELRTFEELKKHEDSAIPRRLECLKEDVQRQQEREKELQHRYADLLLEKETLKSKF
UniProt Q01850: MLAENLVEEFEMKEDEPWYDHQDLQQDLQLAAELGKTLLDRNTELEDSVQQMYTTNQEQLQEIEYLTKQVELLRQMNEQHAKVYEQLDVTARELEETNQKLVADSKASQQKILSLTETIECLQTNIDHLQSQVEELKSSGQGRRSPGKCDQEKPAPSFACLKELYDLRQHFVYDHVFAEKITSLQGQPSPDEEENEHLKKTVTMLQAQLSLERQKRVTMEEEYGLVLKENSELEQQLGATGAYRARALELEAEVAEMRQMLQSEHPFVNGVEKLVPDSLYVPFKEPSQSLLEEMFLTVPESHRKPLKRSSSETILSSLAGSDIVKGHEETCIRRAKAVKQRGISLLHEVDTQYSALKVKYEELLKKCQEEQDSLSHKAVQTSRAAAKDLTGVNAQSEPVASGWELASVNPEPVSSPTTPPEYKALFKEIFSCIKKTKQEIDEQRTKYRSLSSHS
UniProt Q8NHZ8, whole entry, looked up: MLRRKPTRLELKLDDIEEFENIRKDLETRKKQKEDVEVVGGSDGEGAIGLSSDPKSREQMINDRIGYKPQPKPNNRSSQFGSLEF

These targets were tested with CC1=C2C(=CC=C1)N=C(N(C2=O)C3=CC=CC=C3C)CN4C=NC5=C(N=CN=C54)N (assay: log2 fold change, soluble protein after heating vs DMSO (PISA); higher = thermal stabilisation; K562 lysate, 10 uM; active = over 0.2 and 3.5 SD of the protein, either way, in both replicates (recomputed)).
Procedure, shortened: (§1)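 Values give the log-two fold change in thermal stability against solvent controls, from duplicates. Crude K562 extract at 1 mg/mL protein, made by dounce homogenisation in PBS pH 7.4 with 1 mM MgCl2, was treated with 10 μM compound for 30 min. After 3 min heating across 48°C-58°C, aliquots were pooled, adjusted to 0.5% NP-40 at 4°C and centrifuged at 21,000xg for 90 min. The supernatant was measured by TMTpro 16plex LC-MS/MS with channel sums equalised.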
For CDC34 (UniProt P49427), the log2 fold change was inactive: -0.064.
In the case of CDKN2AIP (UniProt Q9NXV6), the log2 fold change is reported as inactive: 0.027.
With CHAC2 (UniProt Q8WUX2) the log2 fold change was inactive: 0.028.
For CEP55 (UniProt Q53EZ4), the log2 fold change was inactive: 0.022.
In the case of CFAP20 (UniProt Q9Y6A4), the log2 fold change is reported as inactive: -0.024.
CFH (UniProt P08603) was tested, and the log2 fold change was inactive: 0.011.
For CEP85 isoform 2 (UniProt Q6P2H3), the log2 fold change was inactive: 0.032.
With CENPJ (UniProt Q9HC77) the log2 fold change was inactive: 0.133.
With CFDP1 (UniProt Q9UEE9) the log2 fold change was inactive: -0.017.
With CEPT1 (UniProt Q9Y6K0) the log2 fold change was inactive: 0.062.
In the case of CEP120 (UniProt Q8N960), the log2 fold change is reported as inactive: 0.145.
In the case of CEP131 (UniProt Q9UPN4), the log2 fold change is reported as inactive: 0.007.
For CDC42 isoform 1 (UniProt P60953), the log2 fold change was inactive: -0.036.
For CDC27 isoform 2 (UniProt P30260), the log2 fold change was inactive: 0.042.
For CFAP410 (UniProt O43822), the log2 fold change was inactive: 0.098.
CEBPB (UniProt P17676) was tested, and the log2 fold change was inactive: -0.09.
With CEP152 (UniProt O94986) the log2 fold change was inactive: 0.01.
CEP97 (UniProt Q8IW35) was tested, and the log2 fold change was inactive: 0.025.
CEP41 (UniProt Q9BYV8) was tested, and the log2 fold change was inactive: -0.106.
For CHAC1 (UniProt Q9BUX1), the log2 fold change was inactive: -0.083.
CDC42BPA isoform 6 (UniProt Q5VT25) was tested, and the log2 fold change was inactive: -0.008.
For CENPK (UniProt Q9BS16), the log2 fold change was inactive: 0.104.
In the case of CDS2 (UniProt O95674), the log2 fold change is reported as inactive: -0.056.
In the case of CDK9 isoform 2 (UniProt P50750), the log2 fold change is reported as inactive: -0.015.
In the case of CD97 (UniProt P48960), the log2 fold change is reported as inactive: -0.051.
With CGGBP1 (UniProt Q9UFW8) the log2 fold change was inactive: 0.002.
With CDCA3 (UniProt Q99618) the log2 fold change was inactive: 0.03.
CDC5L (UniProt Q99459) was tested, and the log2 fold change was inactive: -0.017.
In the case of CDC25C (UniProt P30307), the log2 fold change is reported as inactive: 0.023.
With CDR2 (UniProt Q01850) the log2 fold change was inactive: 0.013.
CDCA5 (UniProt Q96FF9) was tested, and the log2 fold change was inactive: 0.049.
With CDK1 (UniProt P06493) the log2 fold change was inactive: 0.042.
For CDC42 (UniProt P60953), the log2 fold change was inactive: 0.043.
In the case of CDC26 (UniProt Q8NHZ8), the log2 fold change is reported as inactive: -0.203.
CDC73 (UniProt Q6P1J9) was tested, and the log2 fold change was inactive: 0.03.
In the case of CDK5RAP3 isoform 4 (UniProt Q96JB5), the log2 fold change is reported as inactive: 0.022.

The targets below were run with Cc1sc2c(c1C)C(c1ccc(Cl)cc1)=N[C@@H](CC(=O)OC(C)(C)C)c1nnc(C)n1-2 in the same assay as above.
Procedure, shortened: as §1
In the case of CDC34 (UniProt P49427), the log2 fold change is reported as inactive: 0.021.
In the case of CDKN2AIP (UniProt Q9NXV6), the log2 fold change is reported as inactive: -0.041.
With CHAC2 (UniProt Q8WUX2) the log2 fold change was inactive: -0.025.
In the case of CEP55 (UniProt Q53EZ4), the log2 fold change is reported as inactive: -0.062.
In the case of CFAP20 (UniProt Q9Y6A4), the log2 fold change is reported as inactive: 0.007.
With CFH (UniProt P08603) the log2 fold change was inactive: -0.08.
With CEP85 isoform 2 (UniProt Q6P2H3) the log2 fold change was inactive: -0.06.
For CENPJ (UniProt Q9HC77), the log2 fold change was inactive: -0.01.
With CFDP1 (UniProt Q9UEE9) the log2 fold change was inactive: -0.03.
For CEPT1 (UniProt Q9Y6K0), the log2 fold change was inactive: -0.054.
With CEP120 (UniProt Q8N960) the log2 fold change was inactive: -0.169.
For CEP131 (UniProt Q9UPN4), the log2 fold change was inactive: 0.121.
For CDC42 isoform 1 (UniProt P60953), the log2 fold change was inactive: -0.017.
For CDC27 isoform 2 (UniProt P30260), the log2 fold change was inactive: 0.019.
With CEBPB (UniProt P17676) the log2 fold change was inactive: 0.127.
With CEP152 (UniProt O94986) the log2 fold change was inactive: 0.008.
For CEP97 (UniProt Q8IW35), the log2 fold change was inactive: 0.033.
For CEP41 (UniProt Q9BYV8), the log2 fold change was inactive: -0.068.
For CHAC1 (UniProt Q9BUX1), the log2 fold change was inactive: -0.137.
CDC42BPA isoform 6 (UniProt Q5VT25) was tested, and the log2 fold change was inactive: 0.026.
With CENPK (UniProt Q9BS16) the log2 fold change was inactive: 0.019.
In the case of CDS2 (UniProt O95674), the log2 fold change is reported as inactive: -0.034.
In the case of CDK9 isoform 2 (UniProt P50750), the log2 fold change is reported as inactive: -0.008.
In the case of CD97 (UniProt P48960), the log2 fold change is reported as inactive: 0.006.
For CGGBP1 (UniProt Q9UFW8), the log2 fold change was inactive: 0.001.
With CDCA3 (UniProt Q99618) the log2 fold change was inactive: 0.026.
CDC5L (UniProt Q99459) was tested, and the log2 fold change was inactive: 0.051.
For CDC25C (UniProt P30307), the log2 fold change was inactive: 0.07.
CDR2 (UniProt Q01850) was tested, and the log2 fold change was inactive: 0.127.
In the case of CDCA5 (UniProt Q96FF9), the log2 fold change is reported as inactive: 0.002.
In the case of CDK1 (UniProt P06493), the log2 fold change is reported as inactive: 0.021.
In the case of CDC42 (UniProt P60953), the log2 fold change is reported as inactive: 0.073.
With CDC26 (UniProt Q8NHZ8) the log2 fold change was inactive: -0.177.
CDC73 (UniProt Q6P1J9) was tested, and the log2 fold change was inactive: 0.006.
In the case of CDK5RAP3 isoform 4 (UniProt Q96JB5), the log2 fold change is reported as inactive: -0.01.
